The name of at least one read-out is uncertain.
Assays:
Echinochloa crug-galli [1] = assay: Biological Test 1 (soaking in water/treatment on the 3rd day after transplantation): weed-killing effect on barnyard grass; format: in vivo, Echinochloa crus-galli; details: Treatment performed 3 days after transplantation, examined on the 30th day after treatment
Echinochloa crug-galli [2] = assay: Biological Test 2 (soaking in water/treatment on the 10th day after transplantation): weed-killing effect on barnyard grass; format: in vivo, Echinochloa crus-galli; details: Treatment performed 10 days after transplantation, examined on the 30th day after treatment
Scirups juncoides [3] = assay: Biological Test 2 (soaking in water/treatment on the 10th day after transplantation): weed-killing effect on Scirups juncoides; format: in vivo, Scirpus juncoides; details: Treatment performed 10 days after transplantation, examined on the 30th day after treatment
Scirups juncoides [4] = assay: Biological Test 1 (soaking in water/treatment on the 3rd day after transplantation): weed-killing effect on Scirups juncoides; format: in vivo, Scirpus juncoides; details: Treatment performed 3 days after transplantation, examined on the 30th day after treatment

CSc1c(C(=O)C2=C(O)CCCC2=O)ccc2c1CCS2(=O)=O [A-6, 4-methylthio-5-(1,3-dioxocyclohexan-2-yl)carbonyl-2,3-dihydrobenzothiophene-1,1-dioxide]
Weed-killing effect, Echinochloa crug-galli (Echinochloa crug-galli [1]; dose 100 g/ha): 5 (90% or more (almost completely withered)) | Weed-killing effect, Echinochloa crug-galli (Echinochloa crug-galli [1]; dose 200 g/ha): 5 (90% or more (almost completely withered)) | Weed-killing effect, Echinochloa crug-galli (Echinochloa crug-galli [2]; dose 100 g/ha): 4 (70% or more and less than 90%) | Weed-killing effect, Echinochloa crug-galli (Echinochloa crug-galli [2]; dose 200 g/ha): 5 (90% or more (almost completely withered)) | Weed-killing effect, Scirups juncoides (Scirups juncoides [3]; dose 100 g/ha): 4 (70% or more and less than 90%) | Weed-killing effect, Scirups juncoides (Scirups juncoides [3]; dose 200 g/ha): 5 (90% or more (almost completely withered)) | Weed-killing effect, Scirups juncoides (Scirups juncoides [4]; dose 100 g/ha): 5 (90% or more (almost completely withered)) | Weed-killing effect, Scirups juncoides (Scirups juncoides [4]; dose 200 g/ha): 5 (90% or more (almost completely withered))

— patent US20040002425A1, “Triketone derivatives and herbicides” (Idemitsu Kosan Co., Ltd., priority 1998, published 2004)
